Results: the supplement of paper PMC7666118
The list shows a part of the results.

Amino acid sequences for entries named in this document (tags omitted). A change or cut given only in a name is not applied to a line headed by its entry.
UniProt P60983, whole entry: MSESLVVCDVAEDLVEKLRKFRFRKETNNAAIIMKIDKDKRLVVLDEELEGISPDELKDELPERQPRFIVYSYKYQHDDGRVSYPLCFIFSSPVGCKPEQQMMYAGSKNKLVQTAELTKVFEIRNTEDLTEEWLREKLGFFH
UniProt P50148, whole entry: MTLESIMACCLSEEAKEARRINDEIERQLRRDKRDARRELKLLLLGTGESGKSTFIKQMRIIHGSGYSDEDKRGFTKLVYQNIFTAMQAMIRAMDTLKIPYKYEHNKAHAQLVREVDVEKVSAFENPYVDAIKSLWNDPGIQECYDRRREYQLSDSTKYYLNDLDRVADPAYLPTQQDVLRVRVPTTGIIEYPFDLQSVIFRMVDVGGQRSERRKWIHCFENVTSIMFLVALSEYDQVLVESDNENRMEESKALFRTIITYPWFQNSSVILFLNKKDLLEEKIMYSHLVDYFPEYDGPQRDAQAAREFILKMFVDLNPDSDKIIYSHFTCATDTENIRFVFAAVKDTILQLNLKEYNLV
UniProt Q9H5X1: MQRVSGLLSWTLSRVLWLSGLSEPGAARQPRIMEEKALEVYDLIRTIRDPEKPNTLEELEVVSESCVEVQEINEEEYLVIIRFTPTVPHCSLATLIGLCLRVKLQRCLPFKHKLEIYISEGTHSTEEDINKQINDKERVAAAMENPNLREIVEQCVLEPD
UniProt P30047: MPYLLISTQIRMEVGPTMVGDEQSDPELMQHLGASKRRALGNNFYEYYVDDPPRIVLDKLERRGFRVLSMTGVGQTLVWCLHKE
UniProt Q9HAV0, whole entry: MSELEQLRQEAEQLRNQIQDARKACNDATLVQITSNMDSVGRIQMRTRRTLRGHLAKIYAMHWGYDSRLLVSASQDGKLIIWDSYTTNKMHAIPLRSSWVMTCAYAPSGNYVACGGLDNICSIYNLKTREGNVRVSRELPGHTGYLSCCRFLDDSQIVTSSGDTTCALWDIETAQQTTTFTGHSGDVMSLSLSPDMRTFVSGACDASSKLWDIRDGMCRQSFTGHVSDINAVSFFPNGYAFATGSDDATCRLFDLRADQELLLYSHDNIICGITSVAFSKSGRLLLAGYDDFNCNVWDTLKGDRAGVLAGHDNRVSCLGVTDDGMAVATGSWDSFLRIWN
UniProt P04899, whole entry: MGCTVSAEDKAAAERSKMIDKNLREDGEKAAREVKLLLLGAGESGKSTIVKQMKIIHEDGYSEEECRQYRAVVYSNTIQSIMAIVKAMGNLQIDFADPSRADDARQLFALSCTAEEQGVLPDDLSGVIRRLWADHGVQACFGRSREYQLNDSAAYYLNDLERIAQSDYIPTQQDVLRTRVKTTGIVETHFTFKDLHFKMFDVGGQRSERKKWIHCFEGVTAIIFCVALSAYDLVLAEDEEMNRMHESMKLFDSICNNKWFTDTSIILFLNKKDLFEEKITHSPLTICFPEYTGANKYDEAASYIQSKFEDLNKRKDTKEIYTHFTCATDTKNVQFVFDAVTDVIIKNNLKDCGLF
UniProt Q10471: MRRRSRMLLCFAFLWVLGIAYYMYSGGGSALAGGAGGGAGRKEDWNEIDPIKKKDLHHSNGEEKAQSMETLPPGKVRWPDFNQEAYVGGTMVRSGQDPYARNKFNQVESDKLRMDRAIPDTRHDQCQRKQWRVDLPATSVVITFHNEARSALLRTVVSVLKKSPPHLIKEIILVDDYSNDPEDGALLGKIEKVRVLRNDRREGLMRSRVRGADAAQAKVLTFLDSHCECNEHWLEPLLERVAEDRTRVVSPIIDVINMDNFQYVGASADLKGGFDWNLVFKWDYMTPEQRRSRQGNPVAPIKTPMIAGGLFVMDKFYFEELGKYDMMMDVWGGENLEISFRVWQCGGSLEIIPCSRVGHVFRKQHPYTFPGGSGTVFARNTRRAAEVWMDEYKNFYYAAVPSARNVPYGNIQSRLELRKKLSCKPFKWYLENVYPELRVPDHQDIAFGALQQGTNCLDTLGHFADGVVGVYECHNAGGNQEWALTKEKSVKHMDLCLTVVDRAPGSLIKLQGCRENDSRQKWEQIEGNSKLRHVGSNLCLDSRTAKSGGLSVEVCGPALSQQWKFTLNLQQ
UniProt P22830: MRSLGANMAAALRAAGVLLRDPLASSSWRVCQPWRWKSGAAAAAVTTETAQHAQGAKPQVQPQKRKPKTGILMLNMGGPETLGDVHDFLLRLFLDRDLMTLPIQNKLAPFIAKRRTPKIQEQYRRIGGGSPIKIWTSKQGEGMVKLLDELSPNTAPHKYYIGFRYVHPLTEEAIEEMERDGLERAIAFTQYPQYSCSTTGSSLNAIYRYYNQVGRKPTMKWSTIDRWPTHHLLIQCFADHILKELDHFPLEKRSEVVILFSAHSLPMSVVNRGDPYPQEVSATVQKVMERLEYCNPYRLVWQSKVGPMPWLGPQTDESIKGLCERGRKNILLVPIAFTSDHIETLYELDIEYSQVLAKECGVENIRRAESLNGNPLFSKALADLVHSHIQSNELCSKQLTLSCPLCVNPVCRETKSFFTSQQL
UniProt Q8TEQ6: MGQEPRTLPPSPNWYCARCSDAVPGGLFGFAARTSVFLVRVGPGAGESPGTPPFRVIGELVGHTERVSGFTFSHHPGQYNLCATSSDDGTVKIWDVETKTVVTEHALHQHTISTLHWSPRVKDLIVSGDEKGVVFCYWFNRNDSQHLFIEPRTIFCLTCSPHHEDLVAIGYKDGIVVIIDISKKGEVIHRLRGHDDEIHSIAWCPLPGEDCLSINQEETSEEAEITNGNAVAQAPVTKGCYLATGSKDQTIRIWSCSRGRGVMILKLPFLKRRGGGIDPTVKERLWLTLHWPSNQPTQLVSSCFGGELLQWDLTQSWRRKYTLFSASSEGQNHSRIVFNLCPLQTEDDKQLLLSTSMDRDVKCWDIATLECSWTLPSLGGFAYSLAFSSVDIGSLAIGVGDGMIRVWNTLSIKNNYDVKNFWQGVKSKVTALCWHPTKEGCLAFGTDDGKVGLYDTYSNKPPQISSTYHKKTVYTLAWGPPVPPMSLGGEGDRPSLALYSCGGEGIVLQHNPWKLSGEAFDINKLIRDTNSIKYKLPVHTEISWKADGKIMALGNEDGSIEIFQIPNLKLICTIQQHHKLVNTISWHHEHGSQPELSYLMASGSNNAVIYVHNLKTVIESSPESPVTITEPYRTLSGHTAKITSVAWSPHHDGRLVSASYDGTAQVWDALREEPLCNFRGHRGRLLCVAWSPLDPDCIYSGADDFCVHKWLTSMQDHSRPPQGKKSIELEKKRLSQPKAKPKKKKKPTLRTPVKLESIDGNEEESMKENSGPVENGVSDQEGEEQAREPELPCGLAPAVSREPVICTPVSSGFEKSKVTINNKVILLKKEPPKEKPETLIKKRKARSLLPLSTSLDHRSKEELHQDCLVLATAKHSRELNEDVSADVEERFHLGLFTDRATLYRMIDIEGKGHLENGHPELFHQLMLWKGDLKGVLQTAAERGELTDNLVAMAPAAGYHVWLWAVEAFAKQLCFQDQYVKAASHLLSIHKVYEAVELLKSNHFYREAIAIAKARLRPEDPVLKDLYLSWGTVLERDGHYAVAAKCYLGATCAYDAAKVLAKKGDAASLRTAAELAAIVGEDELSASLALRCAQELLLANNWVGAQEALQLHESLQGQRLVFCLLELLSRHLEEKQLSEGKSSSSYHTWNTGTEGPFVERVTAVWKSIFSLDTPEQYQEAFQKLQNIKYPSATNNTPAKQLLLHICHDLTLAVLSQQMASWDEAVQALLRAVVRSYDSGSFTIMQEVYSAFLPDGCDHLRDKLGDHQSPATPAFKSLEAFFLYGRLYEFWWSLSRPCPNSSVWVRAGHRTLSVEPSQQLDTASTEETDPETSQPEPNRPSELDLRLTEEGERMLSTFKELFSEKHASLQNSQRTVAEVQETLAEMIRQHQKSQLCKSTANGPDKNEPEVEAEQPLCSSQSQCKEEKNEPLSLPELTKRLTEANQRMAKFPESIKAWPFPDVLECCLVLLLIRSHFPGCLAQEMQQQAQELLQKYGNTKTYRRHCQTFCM
UniProt P11362, whole entry, looked up: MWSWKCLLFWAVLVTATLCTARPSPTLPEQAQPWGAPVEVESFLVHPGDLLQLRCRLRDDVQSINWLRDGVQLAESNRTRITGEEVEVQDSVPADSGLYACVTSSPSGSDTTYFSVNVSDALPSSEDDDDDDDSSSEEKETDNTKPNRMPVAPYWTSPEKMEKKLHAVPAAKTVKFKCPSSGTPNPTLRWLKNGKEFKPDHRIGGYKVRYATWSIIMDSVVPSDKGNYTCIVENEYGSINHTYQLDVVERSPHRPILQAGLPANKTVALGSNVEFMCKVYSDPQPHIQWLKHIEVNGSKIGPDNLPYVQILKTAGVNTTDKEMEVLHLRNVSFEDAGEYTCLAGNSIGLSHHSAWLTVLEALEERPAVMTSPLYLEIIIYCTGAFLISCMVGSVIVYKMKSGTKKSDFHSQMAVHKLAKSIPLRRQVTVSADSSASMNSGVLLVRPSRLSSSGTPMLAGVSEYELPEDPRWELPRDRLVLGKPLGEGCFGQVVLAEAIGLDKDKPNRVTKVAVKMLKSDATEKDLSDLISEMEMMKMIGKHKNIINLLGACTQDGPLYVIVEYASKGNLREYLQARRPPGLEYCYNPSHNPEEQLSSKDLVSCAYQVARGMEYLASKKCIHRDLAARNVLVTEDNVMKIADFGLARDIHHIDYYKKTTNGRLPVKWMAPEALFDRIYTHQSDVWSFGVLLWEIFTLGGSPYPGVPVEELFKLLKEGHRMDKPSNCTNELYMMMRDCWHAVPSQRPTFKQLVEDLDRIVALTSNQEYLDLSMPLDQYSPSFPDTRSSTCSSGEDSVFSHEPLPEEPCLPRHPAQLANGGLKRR
UniProt P30273: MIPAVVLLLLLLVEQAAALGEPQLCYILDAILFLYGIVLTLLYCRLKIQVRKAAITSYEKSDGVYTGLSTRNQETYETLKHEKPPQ
UniProt Q14C86: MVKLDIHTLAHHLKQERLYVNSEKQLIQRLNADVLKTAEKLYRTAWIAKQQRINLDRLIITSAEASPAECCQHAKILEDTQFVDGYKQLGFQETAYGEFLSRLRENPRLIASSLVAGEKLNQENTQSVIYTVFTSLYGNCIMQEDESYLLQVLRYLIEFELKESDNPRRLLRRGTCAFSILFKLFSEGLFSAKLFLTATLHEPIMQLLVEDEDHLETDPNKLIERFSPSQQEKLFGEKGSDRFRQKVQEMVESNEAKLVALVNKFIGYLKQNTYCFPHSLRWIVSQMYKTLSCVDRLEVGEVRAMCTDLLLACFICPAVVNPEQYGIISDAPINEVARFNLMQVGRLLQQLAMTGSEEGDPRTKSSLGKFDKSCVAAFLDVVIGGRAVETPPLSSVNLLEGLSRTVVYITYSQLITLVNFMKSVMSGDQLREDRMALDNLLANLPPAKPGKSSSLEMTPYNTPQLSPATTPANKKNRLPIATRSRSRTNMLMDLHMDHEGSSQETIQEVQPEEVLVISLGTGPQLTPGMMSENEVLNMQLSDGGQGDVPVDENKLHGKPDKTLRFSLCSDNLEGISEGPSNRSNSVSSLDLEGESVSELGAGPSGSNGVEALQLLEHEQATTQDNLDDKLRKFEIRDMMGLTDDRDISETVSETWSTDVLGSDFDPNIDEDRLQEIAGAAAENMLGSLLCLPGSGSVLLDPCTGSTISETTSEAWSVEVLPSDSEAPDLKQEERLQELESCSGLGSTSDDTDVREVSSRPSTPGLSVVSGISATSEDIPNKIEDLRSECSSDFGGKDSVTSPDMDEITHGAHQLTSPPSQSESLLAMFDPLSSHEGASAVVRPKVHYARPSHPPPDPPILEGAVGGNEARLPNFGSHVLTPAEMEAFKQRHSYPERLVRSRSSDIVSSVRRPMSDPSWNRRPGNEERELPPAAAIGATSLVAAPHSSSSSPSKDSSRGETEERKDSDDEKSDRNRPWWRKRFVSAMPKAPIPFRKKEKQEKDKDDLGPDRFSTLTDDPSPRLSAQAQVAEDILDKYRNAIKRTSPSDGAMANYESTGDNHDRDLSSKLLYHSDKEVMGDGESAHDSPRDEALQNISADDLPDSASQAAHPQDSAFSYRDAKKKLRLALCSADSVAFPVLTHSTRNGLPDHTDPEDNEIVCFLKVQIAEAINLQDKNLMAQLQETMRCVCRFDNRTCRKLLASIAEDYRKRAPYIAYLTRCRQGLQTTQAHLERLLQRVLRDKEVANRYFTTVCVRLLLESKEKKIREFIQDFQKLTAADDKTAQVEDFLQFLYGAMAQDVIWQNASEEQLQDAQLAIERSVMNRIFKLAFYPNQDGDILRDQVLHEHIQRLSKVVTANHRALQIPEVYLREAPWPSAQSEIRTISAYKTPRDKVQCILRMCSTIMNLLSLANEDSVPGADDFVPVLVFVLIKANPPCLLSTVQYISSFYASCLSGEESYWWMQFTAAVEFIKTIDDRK

Each target was assayed with COc1ccc(Cn2ccc3cc(C)c(C(=O)NO)cc32)cc1 (assay: dose-dependent thermal stabilisation call (2D-TPP, DLPTP, 10% FDR) (binary (1 = stabilised)); higher = stabilised by the compound). Conditions: system: HL-60 intact cells; concentration range 0.04-10 µM.
Description: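 2D thermal proteome profiling in intact HL-60 cells treated with BRD-3811 (0, 0.04, 0.29, 2, 10 uM) for 90 min at 37 C, then heated 3 min at one of 12 temperatures (42-63.9 C). Soluble protein was quantified by TMT10 MS. The value is the DLPTP call of the paper: dose-dependent thermal stabilisation over all temperatures at 10% FDR (F-test of a dose-response against a flat model); one experiment, one call per tested protein.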
In the case of FBXL18 (UniProt Q96ME1), the “dose-dependent thermal stabilisation call” value is reported as inactive: 0.
FNTB (UniProt P49356) was tested, and the “dose-dependent thermal stabilisation call” value was inactive: 0.
In the case of GMFB (UniProt P60983), the “dose-dependent thermal stabilisation call” value is reported as inactive: 0.
For FAR1 (UniProt Q8WVX9), the “dose-dependent thermal stabilisation call” value was inactive: 0.
GANAB (UniProt Q14697) was tested, and the “dose-dependent thermal stabilisation call” value was inactive: 0.
With GNAQ (UniProt P50148) the “dose-dependent thermal stabilisation call” value was inactive: 0.
In the case of FAM96A (UniProt Q9H5X1), the “dose-dependent thermal stabilisation call” value is reported as inactive: 0.
GCHFR (UniProt P30047) was tested, and the “dose-dependent thermal stabilisation call” value was inactive: 0.
For FIG4 (UniProt Q92562), the “dose-dependent thermal stabilisation call” value was inactive: 0.
In the case of GINS2 (UniProt Q9Y248), the “dose-dependent thermal stabilisation call” value is reported as inactive: 0.
For GNB4 (UniProt Q9HAV0), the “dose-dependent thermal stabilisation call” value was inactive: 0.
With FBXL11 (UniProt Q9Y2K7) the “dose-dependent thermal stabilisation call” value was inactive: 0.
With FRG1 (UniProt Q14331) the “dose-dependent thermal stabilisation call” value was inactive: 0.
With FIGNL1 (UniProt Q6PIW4) the “dose-dependent thermal stabilisation call” value was inactive: 0.
GIPC1 (UniProt O14908) was tested, and the “dose-dependent thermal stabilisation call” value was inactive: 0.
For GNAI2 (UniProt P04899), the “dose-dependent thermal stabilisation call” value was inactive: 0.
GALNT2 (UniProt Q10471) was tested, and the “dose-dependent thermal stabilisation call” value was inactive: 0.
For FLJ45032, the “dose-dependent thermal stabilisation call” value was inactive: 0.
GDF1 (UniProt P27539) was tested, and the “dose-dependent thermal stabilisation call” value was inactive: 0.
For FECH (UniProt P22830), the “dose-dependent thermal stabilisation call” value was inactive: 0.
In the case of FBXL12 (UniProt Q9NXK8), the “dose-dependent thermal stabilisation call” value is reported as inactive: 0.
For FTSJ3 (UniProt Q8IY81), the “dose-dependent thermal stabilisation call” value was inactive: 0.
FEN1 (UniProt P39748) was tested, and the “dose-dependent thermal stabilisation call” value was inactive: 0.
With GLTSCR2 (UniProt Q9NZM5) the “dose-dependent thermal stabilisation call” value was inactive: 0.
FASTKD1 (UniProt Q53R41) was tested, and the “dose-dependent thermal stabilisation call” value was inactive: 0.
In the case of GEMIN5 (UniProt Q8TEQ6), the “dose-dependent thermal stabilisation call” value is reported as inactive: 0.
GLOD4 (UniProt Q9HC38) was tested, and the “dose-dependent thermal stabilisation call” value was inactive: 0.
In the case of GAA (UniProt P10253), the “dose-dependent thermal stabilisation call” value is reported as inactive: 0.
In the case of FEM1A (UniProt Q9BSK4), the “dose-dependent thermal stabilisation call” value is reported as inactive: 0.
FGFR1 (UniProt P11362) was tested, and the “dose-dependent thermal stabilisation call” value was inactive: 0.
In the case of FAM54A (UniProt Q6P444), the “dose-dependent thermal stabilisation call” value is reported as inactive: 0.
GABPA (UniProt Q06546) was tested, and the “dose-dependent thermal stabilisation call” value was inactive: 0.
In the case of FCER1G (UniProt P30273), the “dose-dependent thermal stabilisation call” value is reported as inactive: 0.
With GAPVD1 (UniProt Q14C86) the “dose-dependent thermal stabilisation call” value was inactive: 0.
For FBL (UniProt P22087), the “dose-dependent thermal stabilisation call” value was inactive: 0.
In the case of GLA (UniProt P06280), the “dose-dependent thermal stabilisation call” value is reported as inactive: 0.
